Assay results reported in paper doi:10.1101/2021.04.13.439701.
No constants are given. Whether binding was seen depends on the method and setting. Binding seen in cells or lysates may run through a third protein. Some binding calls cover weakened binding; strength is not graded here.

Sequences of proteins named here, by UniProt entry; tags and fusion partners are left off.
UniProt O95817: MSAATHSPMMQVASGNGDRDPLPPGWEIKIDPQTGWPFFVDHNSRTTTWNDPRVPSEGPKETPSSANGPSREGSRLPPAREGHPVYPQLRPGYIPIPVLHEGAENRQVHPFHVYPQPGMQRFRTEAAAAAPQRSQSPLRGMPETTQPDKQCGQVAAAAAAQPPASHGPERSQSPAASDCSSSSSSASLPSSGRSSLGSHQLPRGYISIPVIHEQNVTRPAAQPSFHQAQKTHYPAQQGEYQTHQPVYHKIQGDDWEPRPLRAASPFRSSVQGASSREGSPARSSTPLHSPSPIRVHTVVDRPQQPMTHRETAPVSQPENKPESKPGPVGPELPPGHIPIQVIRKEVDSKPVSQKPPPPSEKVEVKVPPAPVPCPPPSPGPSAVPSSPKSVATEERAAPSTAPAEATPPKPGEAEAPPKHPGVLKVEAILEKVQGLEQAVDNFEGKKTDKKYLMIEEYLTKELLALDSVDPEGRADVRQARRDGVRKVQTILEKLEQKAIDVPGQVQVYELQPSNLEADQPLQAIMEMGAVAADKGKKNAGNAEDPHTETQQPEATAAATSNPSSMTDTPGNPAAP
UniProt Q9BQI3: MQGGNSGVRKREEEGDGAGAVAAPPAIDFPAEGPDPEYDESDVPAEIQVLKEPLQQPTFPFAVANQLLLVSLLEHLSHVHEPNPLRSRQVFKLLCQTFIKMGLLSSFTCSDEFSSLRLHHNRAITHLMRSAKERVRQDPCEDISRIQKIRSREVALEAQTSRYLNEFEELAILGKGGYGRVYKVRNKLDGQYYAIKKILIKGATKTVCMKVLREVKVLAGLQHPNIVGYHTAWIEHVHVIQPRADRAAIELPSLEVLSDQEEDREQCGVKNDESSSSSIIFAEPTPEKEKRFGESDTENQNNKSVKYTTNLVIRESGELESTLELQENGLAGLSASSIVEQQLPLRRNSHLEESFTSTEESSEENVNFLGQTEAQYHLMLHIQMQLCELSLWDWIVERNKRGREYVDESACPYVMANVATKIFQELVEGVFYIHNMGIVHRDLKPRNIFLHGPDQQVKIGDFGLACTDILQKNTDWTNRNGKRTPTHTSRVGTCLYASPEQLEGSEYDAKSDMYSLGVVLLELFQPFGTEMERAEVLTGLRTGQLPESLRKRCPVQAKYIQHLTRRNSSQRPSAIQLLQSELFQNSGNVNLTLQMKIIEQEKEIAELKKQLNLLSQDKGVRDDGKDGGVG

Target: N-terminally His-tagged Bag3 Full length (UniProt O95817)
Test: pull-down

binding: binds
Substance: HRI (EIF2AK1), heme-responsive eIF2α kinase (from UniProt Q9BQI3 1-630) (enzyme)
